Measured values reported in patent publication US7238801B2, “Phthalocyanine compound, method for production thereof, and near infrared absorbing dye and near infrared absorbing filter using same” (Nippon Shokubai Co., Ltd., priority 2002, dated 2007).

Test: Transmittance to visible light of diluted chloroform solution
Assay type: physicochemical
Settings: chloroform solution diluted to minimum transmittance 5–6% at >920 to 1050 nm, 1-cm quartz cell, JIS R3106

| Substance | Transmittance to visible light (%) |
| --- | --- |
| VOPc(PhS)8{2,6-(CH3)2PhO}4[{(CH3)2CH}2NCH2CH2NH]4 [Example 3] | 76 |
| VOPc(PhS)8{2,6-(CH3)2PhO}4{(C2H5)2NCH2CH2NH}4 [Example 1] | 78 |
| VOPc(PhS)8{2,6-(CH3)2PhO}4{(CH3)2CHO(CH2)3NH}4 [Example 9] | 78 |
| VOPc(PhS)8{2,6-(CH3)2PhO}4{(CH3CH2O(CH2)3NH}4 [Example 8] | 76 |
| VOPc(PhS)8{2,6-(CH3)2PhO}4{CH3(CH2)3CH(C2H5)CH2NH}4 [Example 16] | 79 |
| VOPc(PhS)8{2,6-(CH3)2PhO}4{CH3(CH2)3CH(C2H5)CH2O(CH2)3NH}4 [Example 11] | 75 |
| VOPc(PhS)8{2,6-(CH3)2PhO}4{CH3(CH2)3O(CH2)3NH}4 [Example 10] | 77 |
| VOPc(PhS)8{2,6-(CH3)2PhO}4{CH3(CH2)5NH}4 [Example 15] | 80 |
| VOPc(PhS)8{2,6-(CH3)2PhO}4{CH3(CH2)7NH}4 [Example 18] | 79 |
| VOPc(PhS)8{2,6-(CH3)2PhO}4{CH3(CH2)17NH}4 [Example 19] | 78 |
| VOPc(PhS}8{2,6-(CH3)2PhO}4[{CH3(CH2)2CH}2NCH2CH2NH]4 [Example 4] | 76 |
| VOPc{2-(CH3O)PhS}8{2,6-(CH3)2PhO}4{(C2H5)2NCH2CH2NH}4 [Example 2] | 77 |
| VOPc{4-(CH3O)PhS}8{2,6-(CH3)2PhO}4{CH3(CH2)3CH(C2H5)CH2NH}4 [Example 17] | 80 |
